Experimental data: publication doi:10.1101/2021.08.01.454609
No constants are given. Whether binding was seen depends on the method and setting. In cells and extracts the contact can be indirect. Some entries that bind do so weakly or less than the wild type. For part of these data: Where a sequence is shown, tags or fusion partners need not be part of it. Each block holds one molecule with its values, some of them ahead of it.

Key:
[1] = molecular target: coilin-R8A-GFP (human) (UniProt P38432); experiment: co-IP
[2] = molecular target: coilin-D79A-GFP (human) (UniProt P38432); experiment: co-IP
[3] = molecular target: coilin-R36A-GFP (human) (UniProt P38432); experiment: co-IP
[4] = molecular target: coilin NTD R36A, CFP- and YFP-labeled copies for FRET (human) (UniProt P38432); experiment: FRET or BRET
[5] = molecular target: wild-type coilin-GFP (human) (UniProt P38432); experiment: co-IP
[6] = molecular target: coilin R8A, CFP- and YFP-tagged, for FRET in HeLa cells (human) (UniProt P38432); experiment: FRET or BRET
[7] = molecular target: coilin R36A, CFP-tagged, for FRET in HeLa cells (human) (UniProt P38432); experiment: FRET or BRET

binding [1]: binds
binding [2]: binds
binding [3]: binds
Molecule: endogenous coilin (from UniProt P38432 1-576)

binding [4]: binds
B1: coilin NTD R36A, CFP- and YFP-labeled copies for FRET (domain or fragment, UniProt P38432 1-97)
chain: MAASETVRLRLQFDYPPPATPHCTAFWLLVDLNRCAVVTDLISLIRQRFGFSSGAFLGLYLEGGLLPPAESARLVRDNDCLRVKLEERGVAENSVVI

binding [1]: no binding
binding [5]: binds
binding [3]: no binding
B2: endogenous Nopp140 (protein, UniProt Q14978 1-699)
chain: MADAGIRRVVPSDLYPLVLGFLRDNQLSEVANKFAKATGATQQDANASSLLDIYSFWLKSAKVPERKLQANGPVAKKAKKKASSSDSEDSSEEEEEVQGPPAKKAAVPAKRVGLPPGKAAAKASESSSSEESSDDDDEEDQKKQPVQKGVKPQAKAAKAPPKKAKSSDSDSDSSSEDEPPKNQKPKITPVTVKAQTKAPPKPARAAPKIANGKAASSSSSSSSSSSSDDSEEEKAAATPKKTVPKKQVVAKAPVKAATTPTRKSSSSEDSSSDEEEEQKKPMKNKPGPYSSVPPPSAPPPKKSLGTQPPKKAVEKQQPVESSEDSSDESDSSSEEEKKPPTKAVVSKATTKPPPAKKAAESSSDSSDSDSSEDDEAPSKPAGTTKNSSNKPAVTTKSPAVKPAAAPKQPVGGGQKLLTRKADSSSSEEESSSSEEEKTKKMVATTKPKATAKAALSLPAKQAPQGSRDSSSDSDSSSSEEEEEKTSKSAVKKKPQKVAGGAAPSKPASAKKGKAESSNSSSSDDSSEEEEEKLKGKGSPRPQAPKANGTSALTAQNGKAAKNSEEEEEEKKKAAVVVSKSGSLKKRKQNEAAKEAETPQAKKIKLQTPNTFPKRKKGEKRASSPFRRVREEEIEVDSRVADNSFDAKRGAAGDWGERANQVLKFTKGKSFRHEKTKKKRGSYRGGSISVQVNSIKFDSE

binding [6]: no binding
binding [7]: no binding
B3: Nopp140-YFP (protein, UniProt Q14978 1-699)
chain: MADAGIRRVVPSDLYPLVLGFLRDNQLSEVANKFAKATGATQQDANASSLLDIYSFWLKSAKVPERKLQANGPVAKKAKKKASSSDSEDSSEEEEEVQGPPAKKAAVPAKRVGLPPGKAAAKASESSSSEESSDDDDEEDQKKQPVQKGVKPQAKAAKAPPKKAKSSDSDSDSSSEDEPPKNQKPKITPVTVKAQTKAPPKPARAAPKIANGKAASSSSSSSSSSSSDDSEEEKAAATPKKTVPKKQVVAKAPVKAATTPTRKSSSSEDSSSDEEEEQKKPMKNKPGPYSSVPPPSAPPPKKSLGTQPPKKAVEKQQPVESSEDSSDESDSSSEEEKKPPTKAVVSKATTKPPPAKKAAESSSDSSDSDSSEDDEAPSKPAGTTKNSSNKPAVTTKSPAVKPAAAPKQPVGGGQKLLTRKADSSSSEEESSSSEEEKTKKMVATTKPKATAKAALSLPAKQAPQGSRDSSSDSDSSSSEEEEEKTSKSAVKKKPQKVAGGAAPSKPASAKKGKAESSNSSSSDDSSEEEEEKLKGKGSPRPQAPKANGTSALTAQNGKAAKNSEEEEEEKKKAAVVVSKSGSLKKRKQNEAAKEAETPQAKKIKLQTPNTFPKRKKGEKRASSPFRRVREEEIEVDSRVADNSFDAKRGAAGDWGERANQVLKFTKGKSFRHEKTKKKRGSYRGGSISVQVNSIKFDSE
